The record followed here is paper PMC7948397.

Sequences of proteins named here, by UniProt entry; tags and fusion partners are left off. A change or cut given only in a name is not applied to a line headed by its entry. Residues count along the entry.
UniProt P17927: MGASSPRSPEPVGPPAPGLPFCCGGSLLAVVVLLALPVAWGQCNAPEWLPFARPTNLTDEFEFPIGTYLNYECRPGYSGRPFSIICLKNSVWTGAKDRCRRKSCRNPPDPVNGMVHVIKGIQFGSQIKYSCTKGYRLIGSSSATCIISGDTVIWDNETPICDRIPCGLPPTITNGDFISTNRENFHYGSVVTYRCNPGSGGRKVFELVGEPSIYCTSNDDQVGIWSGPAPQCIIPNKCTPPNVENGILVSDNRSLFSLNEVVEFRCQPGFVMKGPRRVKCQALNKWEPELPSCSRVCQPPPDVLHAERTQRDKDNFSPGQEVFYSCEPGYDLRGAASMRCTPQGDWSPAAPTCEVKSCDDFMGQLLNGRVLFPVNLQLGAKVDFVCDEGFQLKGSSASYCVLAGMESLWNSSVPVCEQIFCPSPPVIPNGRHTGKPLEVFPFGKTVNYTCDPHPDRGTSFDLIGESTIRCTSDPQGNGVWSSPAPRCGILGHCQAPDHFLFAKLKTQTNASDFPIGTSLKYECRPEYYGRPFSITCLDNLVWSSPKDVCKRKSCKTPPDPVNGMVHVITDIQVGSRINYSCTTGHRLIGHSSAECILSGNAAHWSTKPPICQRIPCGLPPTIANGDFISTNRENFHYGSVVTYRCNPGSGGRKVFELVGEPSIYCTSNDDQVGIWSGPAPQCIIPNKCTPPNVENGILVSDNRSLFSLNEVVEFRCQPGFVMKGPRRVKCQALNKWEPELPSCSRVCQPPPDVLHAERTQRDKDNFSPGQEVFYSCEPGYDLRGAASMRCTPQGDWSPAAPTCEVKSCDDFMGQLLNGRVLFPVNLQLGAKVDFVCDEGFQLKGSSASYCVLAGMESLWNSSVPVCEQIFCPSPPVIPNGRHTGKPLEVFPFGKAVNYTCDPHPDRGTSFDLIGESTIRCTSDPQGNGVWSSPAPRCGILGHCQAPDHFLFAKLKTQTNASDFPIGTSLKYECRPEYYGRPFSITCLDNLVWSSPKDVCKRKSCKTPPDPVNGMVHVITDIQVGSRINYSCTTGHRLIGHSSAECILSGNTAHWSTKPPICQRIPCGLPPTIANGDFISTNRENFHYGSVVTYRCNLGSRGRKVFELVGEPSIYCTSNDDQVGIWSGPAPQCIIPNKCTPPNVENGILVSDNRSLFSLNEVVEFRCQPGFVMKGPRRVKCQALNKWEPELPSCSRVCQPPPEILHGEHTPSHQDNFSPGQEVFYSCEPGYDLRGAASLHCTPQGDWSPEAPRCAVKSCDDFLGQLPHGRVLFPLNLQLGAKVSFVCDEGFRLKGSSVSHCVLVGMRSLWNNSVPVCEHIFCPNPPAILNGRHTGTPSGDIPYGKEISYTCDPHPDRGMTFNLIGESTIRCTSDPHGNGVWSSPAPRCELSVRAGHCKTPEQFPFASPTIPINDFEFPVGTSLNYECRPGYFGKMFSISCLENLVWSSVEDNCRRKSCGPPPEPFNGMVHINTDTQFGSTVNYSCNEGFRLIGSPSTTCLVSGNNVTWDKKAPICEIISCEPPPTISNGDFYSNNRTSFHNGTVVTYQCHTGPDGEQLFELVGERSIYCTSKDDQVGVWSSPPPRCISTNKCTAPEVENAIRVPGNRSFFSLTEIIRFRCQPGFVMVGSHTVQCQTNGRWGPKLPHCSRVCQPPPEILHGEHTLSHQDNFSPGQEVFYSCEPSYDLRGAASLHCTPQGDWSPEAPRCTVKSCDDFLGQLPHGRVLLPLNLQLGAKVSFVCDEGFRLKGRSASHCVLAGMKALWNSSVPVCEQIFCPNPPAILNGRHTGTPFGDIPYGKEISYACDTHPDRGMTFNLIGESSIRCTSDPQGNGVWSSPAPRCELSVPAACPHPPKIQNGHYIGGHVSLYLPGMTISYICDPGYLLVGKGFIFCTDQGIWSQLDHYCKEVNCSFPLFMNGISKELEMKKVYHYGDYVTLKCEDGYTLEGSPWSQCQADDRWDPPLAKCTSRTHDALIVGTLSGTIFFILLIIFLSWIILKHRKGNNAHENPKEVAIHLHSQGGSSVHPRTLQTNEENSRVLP
HuCR1(1971), soluble full-length extracellular domain of human complement receptor 1 (LHR-A, -B, -C and -D): residues 42-1971 of P17927
HuCR1(1392)/CSL040, soluble human complement receptor 1 truncated at amino acid 1392 (LHR-A, LHR-B and LHR-C): residues 42-1392 of P17927
UniProt P0C0L4: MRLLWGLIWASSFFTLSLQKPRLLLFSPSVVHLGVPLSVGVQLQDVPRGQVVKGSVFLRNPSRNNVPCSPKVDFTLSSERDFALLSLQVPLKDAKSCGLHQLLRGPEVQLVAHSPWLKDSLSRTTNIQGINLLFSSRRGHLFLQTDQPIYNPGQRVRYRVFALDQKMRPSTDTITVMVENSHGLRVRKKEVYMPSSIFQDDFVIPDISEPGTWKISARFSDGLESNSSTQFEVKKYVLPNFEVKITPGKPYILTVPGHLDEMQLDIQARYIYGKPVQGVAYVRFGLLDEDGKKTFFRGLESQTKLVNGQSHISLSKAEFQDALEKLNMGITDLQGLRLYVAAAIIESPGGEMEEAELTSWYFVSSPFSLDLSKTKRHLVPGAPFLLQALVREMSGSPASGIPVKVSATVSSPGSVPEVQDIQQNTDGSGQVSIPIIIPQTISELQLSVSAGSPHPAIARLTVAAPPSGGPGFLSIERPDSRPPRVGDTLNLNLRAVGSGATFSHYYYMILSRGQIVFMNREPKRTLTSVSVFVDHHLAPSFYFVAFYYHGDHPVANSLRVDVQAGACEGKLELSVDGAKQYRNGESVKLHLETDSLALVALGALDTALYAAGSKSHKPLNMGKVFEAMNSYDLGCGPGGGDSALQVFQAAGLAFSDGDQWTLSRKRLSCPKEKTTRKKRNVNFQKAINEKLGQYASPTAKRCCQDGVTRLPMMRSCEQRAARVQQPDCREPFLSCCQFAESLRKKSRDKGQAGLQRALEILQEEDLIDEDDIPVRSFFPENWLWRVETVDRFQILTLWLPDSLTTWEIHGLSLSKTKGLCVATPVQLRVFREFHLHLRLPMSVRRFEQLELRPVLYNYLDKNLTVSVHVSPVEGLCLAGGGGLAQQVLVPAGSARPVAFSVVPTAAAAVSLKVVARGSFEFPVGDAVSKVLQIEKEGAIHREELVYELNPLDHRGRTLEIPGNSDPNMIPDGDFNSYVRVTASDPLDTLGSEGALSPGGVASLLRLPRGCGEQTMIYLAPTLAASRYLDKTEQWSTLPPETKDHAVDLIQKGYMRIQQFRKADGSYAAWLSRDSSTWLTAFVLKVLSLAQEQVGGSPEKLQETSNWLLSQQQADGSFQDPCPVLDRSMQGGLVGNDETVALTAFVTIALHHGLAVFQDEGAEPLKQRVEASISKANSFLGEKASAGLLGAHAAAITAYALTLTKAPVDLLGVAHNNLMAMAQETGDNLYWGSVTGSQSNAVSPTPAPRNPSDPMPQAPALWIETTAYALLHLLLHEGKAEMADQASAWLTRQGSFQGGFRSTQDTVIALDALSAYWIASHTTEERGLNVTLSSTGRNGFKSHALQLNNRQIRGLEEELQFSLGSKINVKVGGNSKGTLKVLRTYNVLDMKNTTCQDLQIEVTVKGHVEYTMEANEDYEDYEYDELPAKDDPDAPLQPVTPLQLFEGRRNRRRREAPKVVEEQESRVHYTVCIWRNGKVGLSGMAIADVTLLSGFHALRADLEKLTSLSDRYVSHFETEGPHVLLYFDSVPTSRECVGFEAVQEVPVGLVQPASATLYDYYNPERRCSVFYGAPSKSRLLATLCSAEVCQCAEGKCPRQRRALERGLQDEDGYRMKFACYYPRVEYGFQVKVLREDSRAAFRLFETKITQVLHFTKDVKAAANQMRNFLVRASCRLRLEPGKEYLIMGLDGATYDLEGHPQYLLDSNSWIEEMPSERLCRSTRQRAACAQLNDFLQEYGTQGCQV

No constants are given. Whether binding was seen depends on the method and setting. Binding can be weak; no strength is given.

For test [1], the target named is HuCR1(1971), soluble full-length extracellular domain of human complement receptor 1 (LHR-A, -B, -C and -D) (human) (UniProt P17927). The test can be described thus: SPR; His-tagged CSL040 or HuCR1(1971) captured on a Ni-NTA chip to 75-100 RU, C3b or C4b injected as analyte; Biacore T200, 37 °C; 10 mM Hepes, 150 mM NaCl, 0.1% bovine serum albumin, pH 7.3; 1:1 model with a term for mass transport; both purified. A general note: In SPR one partner is held on a chip, and binding of the other changes the refractive index at the surface.

The target in test [2] is HuCR1(1392)/CSL040, soluble human complement receptor 1 truncated at amino acid 1392 (LHR-A, LHR-B and LHR-C) (human) (UniProt P17927). The test is described as above.

As to “plasma-derived human C4b (from UniProt P0C0L4) (ligand)”, the binding result in test [1] and in test [2] was “binds” in each case.
